Source: publication PMC5803255
These are yes or no findings as the source states them, for the method shown. Binding seen in cells or lysates may run through a third protein. Some binding calls cover weakened binding; strength is not graded here. For part of these data: Where a sequence is shown, tags or fusion partners need not be part of it.

The chains behind the UniProt entries cited, without tags or fusion partners. Residues count along the entry.
UniProt P30561, residues 10-848: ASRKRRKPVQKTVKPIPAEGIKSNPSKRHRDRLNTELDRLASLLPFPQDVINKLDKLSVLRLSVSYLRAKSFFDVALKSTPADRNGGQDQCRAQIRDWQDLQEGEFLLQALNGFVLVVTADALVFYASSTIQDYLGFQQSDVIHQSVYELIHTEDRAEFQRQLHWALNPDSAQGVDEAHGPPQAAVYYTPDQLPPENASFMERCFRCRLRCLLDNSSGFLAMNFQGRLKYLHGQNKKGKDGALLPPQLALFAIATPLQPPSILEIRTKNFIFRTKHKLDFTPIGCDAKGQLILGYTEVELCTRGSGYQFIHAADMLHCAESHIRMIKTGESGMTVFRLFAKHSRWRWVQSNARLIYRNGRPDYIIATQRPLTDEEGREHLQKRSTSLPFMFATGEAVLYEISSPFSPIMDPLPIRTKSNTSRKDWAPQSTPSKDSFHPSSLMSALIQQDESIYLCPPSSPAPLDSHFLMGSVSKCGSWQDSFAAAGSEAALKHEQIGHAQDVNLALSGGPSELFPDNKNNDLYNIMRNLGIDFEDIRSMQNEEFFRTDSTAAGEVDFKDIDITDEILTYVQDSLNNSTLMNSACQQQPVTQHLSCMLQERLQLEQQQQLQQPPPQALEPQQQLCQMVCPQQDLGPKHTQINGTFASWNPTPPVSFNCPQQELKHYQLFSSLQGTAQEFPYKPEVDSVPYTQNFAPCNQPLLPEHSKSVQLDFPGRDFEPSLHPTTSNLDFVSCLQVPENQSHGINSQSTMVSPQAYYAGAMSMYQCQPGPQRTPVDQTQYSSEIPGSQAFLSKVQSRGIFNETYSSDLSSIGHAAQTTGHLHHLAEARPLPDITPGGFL

B1: Small heterodimer partner (SHP, NR0B2) (protein, UniProt Q62227 1-260)
chain: MSSGQSGVCPCQGSAGRPTILYALLSPSPRTRPVAPASHSHCLCQQQRPVRLCAPHRTCREALDVLAKTVAFLRNLPSFCHLPHEDQRRLLECCWGPLFLLGLAQDAVTFEVAEAPVPSILKKILLEEASSGTQGAQPSDRPQPSLAAVQWLQRCLESFWSLELGPKEYAYLKGTILFNPDVPGLRASCHIAHLQQEAHWALCEVLEPWYPASQGRLARILLMASTLKNIPGTLLVDLFFRPIMGDVDITELLEDMLLLR
B2: SHP-WT (adenovirally expressed, Ad-SHP-WT) (protein, UniProt Q15466 1-257)
chain: MSTSQPGACPCQGAASRPAILYALLSSSLKAVPRPRSRCLCRQHRPVQLCAPHRTCREALDVLAKTVAFLRNLPSFWQLPPQDQRRLLQGCWGPLFLLGLAQDAVTFEVAEAPVPSILKKILLEEPSSSGGSGQLPDRPQPSLAAVQWLQCCLESFWSLELSPKEYACLKGTILFNPDVPGLQAASHIGHLQQEAHWVLCEVLEPWCPAAQGRLTRVLLTASTLKSIPTSLLGDLFFRPIIGDVDIAGLLGDMLLLR
B3: T55A-SHP (phosphorylation-defective mutant, Ad-T55A-SHP) (protein, UniProt Q15466 1-257)
chain: MSTSQPGACPCQGAASRPAILYALLSSSLKAVPRPRSRCLCRQHRPVQLCAPHRACREALDVLAKTVAFLRNLPSFWQLPPQDQRRLLQGCWGPLFLLGLAQDAVTFEVAEAPVPSILKKILLEEPSSSGGSGQLPDRPQPSLAAVQWLQCCLESFWSLELSPKEYACLKGTILFNPDVPGLQAASHIGHLQQEAHWVLCEVLEPWCPAAQGRLTRVLLTASTLKSIPTSLLGDLFFRPIIGDVDIAGLLGDMLLLR

Key:
[1] = molecular target: Aryl hydrocarbon receptor (AhR) (mouse (endogenous in mouse liver)) (UniProt P30561); assay: co-IP; mouse liver extracts (text: whole cell; legend: nuclear) from mice fasted 12 h, refed 4 h, or fasted 4 h and treated with FGF19 for 2 h; AhR immunoprecipitates blotted for SHP; CoIP buffer 50 mM Tris pH 8.0, 150 mM NaCl, 2 mM EDTA, 0.3% NP40, 10% glycerol
[2] = molecular target: Aryl hydrocarbon receptor (AhR) (mouse (endogenous in mouse liver)) (UniProt P30561); assay: co-IP; whole cell liver extracts of SHP-KO mice given Ad-SHP-WT or Ad-T55A-SHP and, 2 weeks later, FGF19 for 2 h; CoIP buffer 50 mM Tris pH 8.0, 150 mM NaCl, 2 mM EDTA, 0.3% NP40, 10% glycerol; precipitating antibody not stated for this panel

Binder | binding [1] | binding [2]
B1 | binds | 
B2 |  | binds
B3 |  | no binding
